## Primary screen of a compound library

Source: ChEMBL document CHEMBL3988442, “University of Dundee, Small-Polar-MMV Screening Library” (2021).

Results are given as percent effect. The controls that fix the scale are not given in the record; negative values are as filed. The compounds are a random part of those screened. Two or more numbers in one place are separate tests of the same structure; such repeats can differ widely.

Mtb glucose medium: 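Phenotypic screen: M. tuberculosis growth, glucose 7H9 medium, 3 days; the read-out is not stated. Compounds at 50 µM. The record gives no direction; compounds that gave an IC50 in retests scored well above the rest, so higher reads as more growth inhibition. Size under these conditions: about 69,000 compounds, about 760 of them at 50% or above in at least one test.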
Mtb cholesterol medium: 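Whole-cell growth test on Mycobacterium tuberculosis, read after 4 days in a medium based on cholesterol and the lipid DPPC; the read-out is not stated. Concentration: 50 µM. Higher reads as more growth inhibition (inferred: compounds with an IC50 in retests scored well above the rest). Size under these conditions: about 69,000 compounds, about 370 of them at 50% or above in at least one test.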

| compound | Mtb glucose medium | Mtb cholesterol medium |
|---|---|---|
| `COc1ccccc1OC1CCN(c2nc(N)nc3[nH]cnc23)CC1` | 12.49% | 4.425% |
| `FC(F)(F)c1cc(C2CCCN(c3cnccn3)C2)n2ccnc2n1` (stereo unspecified) | -9.821% | 13.11% & 6.17% |
| `CCOc1cccc(C2CC(=O)NCc3nc(N(C)C)sc32)c1` (stereo unspecified) | 15.36% | 11.03% |
| `Cc1nn(C)c(C)c1C(=O)NCc1cccnc1OC1CCCC1` | -11.89% & -5.92% | -21.54% & -10.44% |
| `CCOc1ccc(CN2CCCC(c3cc4ncccc4[nH]3)C2)cc1` (stereo unspecified) | 18.99% | 37.51% & 43.69% |
| `Cc1nc(C)n(C2CCCN(C(=O)c3nc(C)n4ccccc34)C2)n1` (stereo unspecified) | 33.34% | 6.135% |
| `O=C(c1ccc(NCc2ccco2)nc1)N1CCc2ccccc21` | -12.74% | 3.073% |
| `CC(C)c1nnc2n1CCN(Cc1ncc(-c3ccccc3)o1)C2` | 11.87% | -3.396% |
| `CS(=O)(=O)c1nccn1Cc1ccc(OC(F)F)cc1` | 25.11% | 1.615% |
| `CN(CC(O)C(F)(F)F)C(=O)Nc1cccc(Cn2cccn2)c1` (stereo unspecified) | 15.09% | -4.506% |
| `Cn1nccc1C1CCN(CC(=O)NCC2CC2)CC1` | -14.68% | -4.304% |
| `Cc1cccn2cc(CN3CCCC(O)C3)nc12` (stereo unspecified) | 23.53% | 10.2% |
| `COCC(=O)N1Cc2nc3c(C)c(-c4cccs4)nn3c(O)c2C1` | -0.5669% | -4.036% & -6.969% |
| `CCn1c(C)nnc1CN(C)C1CCN(CCS(=O)(=O)CC)C1` (stereo unspecified) | -22.87% | -11.81% |
| `Cn1ccnc1CN1CCC2(CC1)COCCN(S(C)(=O)=O)C2.O=C(O)C(F)(F)F` | 9.792% | -5.696% |
| `CCC(C)NC(=O)Cn1ccc2sc(C)cc2c1=O` (stereo unspecified) | -6.427% | -14.33% |
| `CCCc1cc(CN(C)C2CC(C)(C)NC(C)(C)C2)n[nH]1` | -6.404% | 14.13% |
| `CC(C)c1ncc2c(n1)CN(CC1CCCCO1)CC2` (stereo unspecified) | 2.196% | 2.096% |
| `O=C(COc1cccc(Cl)c1)N1CCOCC1c1ncon1` (stereo unspecified) | -57.62% | -24.32% |
| `CC(C)N1CCOC(CC(=O)N2CC(c3ccncc3)C2)C1` (stereo unspecified) | -21.63% & 6.939% | -1.471% |
| `Cc1ccc(C(=O)NC2CCCN(S(C)(=O)=O)C2)c(=O)[nH]1` (stereo unspecified) | 2.831% | -7.725% |
| `COCC(O)CN(C)c1ccnc2cc(Br)ccc12` (stereo unspecified) | 24.16% | 2.259% |
| `CNC(=O)CN1CCC(c2nn(C)c(=O)n2-c2ccccc2)CC1` | -27.04% | 3.298% |
| `Cc1cccc(OCCC(=O)N2CCCN(C(N)=O)CC2)c1C` | -20.5% | 0.1813% |
| `CC(Cc1ccc2c(c1)OCO2)c1cn(CCc2c[nH]cn2)nn1` (stereo unspecified) | 16.96% | 11.27% |
| `N#Cc1ccc(C(=O)N2CCc3c(COCC4CC4)cncc3C2)cc1` | -43.26% | -16.03% |
| `[H][C@@]12COC[C@@H](C(=O)NC)[C@]1([H])CN(C(=O)c1ccc(C)c(C)c1)C2` | -30.31% & 0.05959% | -4.304% |
| `Oc1ccc(N2CCC(Cc3ccccc3)CC2)nn1` | 31.67% | 20.97% |
| `COc1ccc(NC(=O)NC(C)c2nc[nH]n2)cc1` (stereo unspecified) | 33.13% | 10.84% |
| `COC(=O)c1ccc(CN[C@@H]2COC[C@H]2Cc2cc(C)no2)cc1.O=C(O)CC(O)(CC(=O)O)C(=O)O` | -21.36% | -9.579% |
| `c1ccc(CCN2CCCC(c3ccnc4nccn34)C2)cc1` (stereo unspecified) | -18.36% | -10.14% & -4.632% |
| `CC(C)(C)NC(=O)NCc1cnn2ccccc12` | 15.37% | 4.85% |
| `Cc1ccc(S(=O)(=O)Cc2noc([C@@H]3C[C@@H](O)CN3C(C)C)n2)cc1` | 0.1576% & 4.445% | 5.389% |
| `O=C(O)C(F)(F)F.O=C(O)C(F)(F)F.c1cncc(C2COC3(CCN(CC4CC4)CC3)C2)c1` (stereo unspecified) | 9.798% | 0.4815% & 16.52% |
| `CCC(=O)NCCCn1c(-c2cccnc2C)cc2cccnc21.Cl` | 22.79% | 8.424% |
| `CN1C(=O)CCC12CCN(S(=O)(=O)c1ccccc1)CC2` | 5.989% | 18.84% |
| `[H][C@@]12CS(=O)(=O)C[C@]1([H])N(Cc1nc3c(s1)CCCC3)CCN2C` | -6.913% | -18.8% |
| `N#Cc1cc(Cl)ccc1N1CCN(C(=O)C2CCC2)CC1` | 102% & 12.93% | -23.16% |
| `CN(C)c1cc(C2CCCN(C(=O)c3ccc(=O)[nH]n3)C2)ccn1` (stereo unspecified) | -6.394% | 10.42% |
| `[H][C@@]12OCCN(C(=O)C3CCOCC3)[C@@]1([H])CC[C@H]2OCC(=O)N(C)C` | -31.26% | -19.64% & -11.01% |
| `Cc1ccc(NCc2cn3c(n2)CN(Cc2ccc(C)o2)CC3)nn1.O=C(O)C(F)(F)F.O=C(O)C(F)(F)F` | -2.751% & 1.397% | 5.817% |
| `CN(C)C(=O)CN1CCCC(CCCc2ccccn2)(C(N)=O)C1` (stereo unspecified) | -32.63% | -15.24% |
| `Cc1cc2ccccc2n1CC(=O)Nc1ccnn1CC1CCOC1` (stereo unspecified) | -10.2% | -12.76% |
| `O=C1CCCN1Cc1nnn2c1CN(c1ncccn1)CCC2` | -39.1% & 0.4153% | -3.283% |
| `O=C1C(Sc2nc(=O)ccn2C2CC2)CCN1c1ccccc1` (stereo unspecified) | -8.304% | 1.309% |
| `O=C(O)Cn1nc(C2CC2)c2c(-c3cccs3)ccnc21` | 2.8% | -31.57% |
| `CCN(CC1CCCO1)C(=O)NCCNC(=O)c1ccccc1F` (stereo unspecified) | -8.735% | -0.5706% |
| `[H][C@@]12CCN(C(=O)CN(C)C)C[C@]1(c1nc(C)no1)CCO2` | -1.69% & 12.59% | 8.384% |
| `Cl.Fc1ccc(-c2cnc(C3CCCN3)cn2)cc1` (stereo unspecified) | 18.3% | 20.32% & 8.44% |
| `CC(Sc1nncn1C)C(=O)NCCCOc1ccc(F)cc1` (stereo unspecified) | 11.46% | -9.984% |
| `O=C(O)C(F)(F)F.O=C(O)C(F)(F)F.O=C1N(c2cncnc2)CCC12CCCN(Cc1cccnc1)C2` (stereo unspecified) | 8.094% | 0.1387% |
| `Cc1nc(-c2noc3ccc(C(=O)NCCN4CCOCC4)cc23)cs1` | -1.515% & -14.67% | 9.148% |
| `O=C(O)C(F)(F)F.[H][C@@]12COC[C@H](C(=O)N3CCCCO3)[C@]1([H])CN(C1CCCC1)C2` | 21.74% | 17.08% |
| `O=C(CC1CCc2ccccc21)NC1(C(=O)O)CCCC1` (stereo unspecified) | -7.386% & -17.68% | 4.767% |
| `O=C1CCCCCN1Cc1ncnn1Cc1c(F)cccc1Cl` | -5.852% | 5.472% |
| `Cc1ccc(C2CN(CCS(=O)(=O)C(C)C)CCO2)c(C)c1` (stereo unspecified) | -11.25% & 4.789% | -0.9269% |
| `CN(CC(=O)NCCc1cc2ccccc2o1)S(C)(=O)=O` | -24.47% | -21.33% |
| `CCn1ccnc1CN1CCN(c2cc(C)nc(C3CCCN3)c2)CC1.Cl` (stereo unspecified) | 7.929% | -3.813% & -0.09125% |
| `O=c1[nH]nc2c(S(=O)(=O)N3CCCC3)cccn12` | -15.36% | 0.2471% |
| `CC(C)c1noc([C@@H]2C[C@H](NS(=O)(=O)Cc3ccccc3)CN2C)n1` | 7.31% & 9.746% | 20.87% |
| `O=C(c1coc2ccccc12)N1CCCC1` | 36.87% | 29.44% |
| `CCCc1cnc(C)nc1NCCc1nc(C)cc(=O)[nH]1` | -21.64% | -6.069% & -10.97% |
| `Cc1ccc(C(=O)Nc2cc(F)ccc2OCC2CCCO2)cn1` (stereo unspecified) | 23.37% | 8.647% |
| `Cn1c(=O)c2c(n3ncnc13)NC(=O)CC2c1cccc(F)c1` (stereo unspecified) | 3.345% | -0.5829% |
| `Cc1ccc(CNCc2ccc(N3CCC(CO)CC3)nc2)c(C)c1.Cl` | 1.887% | -2.062% |
| `CCCc1cc(NCc2ccc(CO)cc2)n2nccc2n1` | 5.855% | 3.353% |
| `COCc1noc(-c2nn(-c3ccc(F)c(F)c3)c3c2CCC3)n1` | 52.09% | -1.094% |
| `COCC(C)NC(=O)CN1CCC(CO)CC1` (stereo unspecified) | -2.077% | 1.974% |
| `CC(C)(C)OC(=O)NCCc1csc(N2CCCC2)n1` | 54.05% | 26.92% & 26.88% |
| `COc1cc(OC)cc(C(=O)N2CCOCC2c2[nH]ncc2C)c1` (stereo unspecified) | 6.767% | -11.78% & 6.109% |
| `CN1CCN(C(=O)c2cnn(-c3ccccc3Cl)c2)CC1` | 0.7408% | -4.664% |
| `NS(=O)(=O)N1CCc2ccc(NC(=O)CC(F)(F)F)cc21` | -4.385% & -4.663% | 10.97% |
| `COC(=O)c1ccc(N2CCN(C(=O)c3ccc(O)nc3)C(C)C2)cc1` (stereo unspecified) | 1.523% & -29.15% | -4.411% |
| `Cc1noc(C)c1CN1CCCC2(CCN(C(=O)C3CC3)C2)C1` (stereo unspecified) | 0.7644% | -0.06742% & -12.79% |
| `CCCN1CCCn2nc(CNS(=O)(=O)c3ccc(F)cc3)cc2C1` | -2.215% | -11.84% |
| `CNc1ncccc1C(=O)N1CCN(Cc2ccc(C)cc2)C(=O)C1C` (stereo unspecified) | -10.16% & -2.729% | -1.966% |

Repeated from the top, 8 entries:

- COc1ccccc1OC1CCN(c2nc(N)nc3[nH]cnc23)CC1 : Mtb glucose medium: 12.49%; Mtb cholesterol medium: 4.425%
- FC(F)(F)c1cc(C2CCCN(c3cnccn3)C2)n2ccnc2n1 (stereo unspecified) : Mtb glucose medium: -9.821%; Mtb cholesterol medium: 13.11% & 6.17%
- CCOc1cccc(C2CC(=O)NCc3nc(N(C)C)sc32)c1 (stereo unspecified) : Mtb glucose medium: 15.36%; Mtb cholesterol medium: 11.03%
- Cc1nn(C)c(C)c1C(=O)NCc1cccnc1OC1CCCC1 : Mtb glucose medium: -11.89% & -5.92%; Mtb cholesterol medium: -21.54% & -10.44%
- CCOc1ccc(CN2CCCC(c3cc4ncccc4[nH]3)C2)cc1 (stereo unspecified) : Mtb glucose medium: 18.99%; Mtb cholesterol medium: 37.51% & 43.69%
- Cc1nc(C)n(C2CCCN(C(=O)c3nc(C)n4ccccc34)C2)n1 (stereo unspecified) : Mtb glucose medium: 33.34%; Mtb cholesterol medium: 6.135%
- O=C(c1ccc(NCc2ccco2)nc1)N1CCc2ccccc21 : Mtb glucose medium: -12.74%; Mtb cholesterol medium: 3.073%
- CC(C)c1nnc2n1CCN(Cc1ncc(-c3ccccc3)o1)C2 : Mtb glucose medium: 11.87%; Mtb cholesterol medium: -3.396%